Values from PubChem BioAssay AID686943 (Drosophila RNAi Screening Center, 2013)

Screen: 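Knockdowns that increase or decrease active ERK after insulin receptor stimulation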 (primary screen)
Cells: Drosophila S2R+ haemocyte-like cells expressing YFP-tagged ERK (Rolled)
Knock-down reagent: long dsRNA against Drosophila genes
Challenge: insulin stimulation versus unstimulated cells; dose and duration not given
Detection: 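Per-plate z-scores of phospho-ERK immunostaining normalised to YFP-tagged ERK, measured with and without insulin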
Direction: replicate 1, z-score of dpERK with insulin and replicate 2, z-score of dpERK with insulin: higher = more active ERK per ERK-YFP after insulin
The deposit covers about 23,000 reagents; this is an unselected part of those with a known target gene and a result. 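Extra replicates exist only for a retested subset of genes; insulin dose and duration not given; both raised and lowered dpERK matter.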 Reagents against one gene are numbered here. A plus sign joins genes that one reagent is predicted to hit. Further read-outs or replicates are left out here. The record does not give: the amount of reagent, the time to read-out.

What did the screen give for stw (straw) #1?
replicate 1, z-score of dpERK with insulin: -0.07; replicate 2, z-score of dpERK with insulin: -0.11

How did the screen score stw (straw) #2?
replicate 1, z-score of dpERK with insulin: 1.23; replicate 2, z-score of dpERK with insulin: 0.33

What is on record for stw (straw) #3?
replicate 1, z-score of dpERK with insulin: 0.29; replicate 2, z-score of dpERK with insulin: 0.38

What did the screen give for CG13154?
replicate 1, z-score of dpERK with insulin: 1.7; replicate 2, z-score of dpERK with insulin: 0.49

For CR16735 (pseudo), how do the results read?
replicate 1, z-score of dpERK with insulin: -0.76; replicate 2, z-score of dpERK with insulin: -0.4

With CG12609, what was measured?
replicate 1, z-score of dpERK with insulin: -0.9; replicate 2, z-score of dpERK with insulin: 0.02

What is on record for Rilpl (Rab interacting lysosomal protein like)?
replicate 1, z-score of dpERK with insulin: -0.43; replicate 2, z-score of dpERK with insulin: 0.38

With CASK #1, how do the results read?
replicate 1, z-score of dpERK with insulin: -0.14; replicate 2, z-score of dpERK with insulin: -0.39

With CASK #2, how do the results read?
replicate 1, z-score of dpERK with insulin: 0.68; replicate 2, z-score of dpERK with insulin: 0.76

With CASK #3, how do the results read?
replicate 1, z-score of dpERK with insulin: -0.35; replicate 2, z-score of dpERK with insulin: 0.13

What did the screen give for CASK #4?
replicate 1, z-score of dpERK with insulin: 0.53; replicate 2, z-score of dpERK with insulin: 0.04

4 entries already listed, arranged by “replicate 2, z-score of dpERK with insulin”, low to high:
CR16735 (pseudo): replicate 1, z-score of dpERK with insulin = -0.76; replicate 2, z-score of dpERK with insulin = -0.4
stw (straw) #2: replicate 1, z-score of dpERK with insulin = 1.23; replicate 2, z-score of dpERK with insulin = 0.33
stw (straw) #3: replicate 1, z-score of dpERK with insulin = 0.29; replicate 2, z-score of dpERK with insulin = 0.38
CG13154: replicate 1, z-score of dpERK with insulin = 1.7; replicate 2, z-score of dpERK with insulin = 0.49

Further reagents follow:
With Myd88, what was measured?
replicate 1, z-score of dpERK with insulin: -0.52; replicate 2, z-score of dpERK with insulin: 0.34

What is on record for CG31784?
replicate 1, z-score of dpERK with insulin: -1.19; replicate 2, z-score of dpERK with insulin: -0.12

With Pp2C1 (Protein phosphatase 2C), what was measured?
replicate 1, z-score of dpERK with insulin: 0.4; replicate 2, z-score of dpERK with insulin: 1.14

For RhoGEF2 (Rho guanine nucleotide exchange factor 2), what was measured?
replicate 1, z-score of dpERK with insulin: 0; replicate 2, z-score of dpERK with insulin: -0.64

For CG10147, what was measured?
replicate 1, z-score of dpERK with insulin: 0.54; replicate 2, z-score of dpERK with insulin: 0.58

How did the screen score CG13050?
replicate 1, z-score of dpERK with insulin: 0.4; replicate 2, z-score of dpERK with insulin: 1.94

Which result is listed for ppk14 (pickpocket 14)?
replicate 1, z-score of dpERK with insulin: 0.99; replicate 2, z-score of dpERK with insulin: -0.12

For Ald2 (Aldolase 2) #1, what does the deposit list?
replicate 1, z-score of dpERK with insulin: -1.21; replicate 2, z-score of dpERK with insulin: -2.03

For Ald2 (Aldolase 2) #2, what was measured?
replicate 1, z-score of dpERK with insulin: -0.02; replicate 2, z-score of dpERK with insulin: -0.42

How did the screen score CG8066?
replicate 1, z-score of dpERK with insulin: -0.08; replicate 2, z-score of dpERK with insulin: -0.51

Which result is listed for CG4456 + Hsp22 #1?
replicate 1, z-score of dpERK with insulin: 0.17; replicate 2, z-score of dpERK with insulin: 0.1

For CG4456 + Hsp22 #2, what does the deposit list?
replicate 1, z-score of dpERK with insulin: 1.1; replicate 2, z-score of dpERK with insulin: 1.14

With ZC3H3, what does the deposit list?
replicate 1, z-score of dpERK with insulin: -1.27; replicate 2, z-score of dpERK with insulin: 0.26

For EMC7 (ER membrane protein complex subunit 7), what does the deposit list?
replicate 1, z-score of dpERK with insulin: 1.25; replicate 2, z-score of dpERK with insulin: 0.52

How did the screen score Den1 (Deneddylase 1)?
replicate 1, z-score of dpERK with insulin: 0.73; replicate 2, z-score of dpERK with insulin: -0.74

For mmd (mind-meld) #1, what was measured?
replicate 1, z-score of dpERK with insulin: 0.2; replicate 2, z-score of dpERK with insulin: -2.63

What is on record for mmd (mind-meld) #2?
replicate 1, z-score of dpERK with insulin: -0.7; replicate 2, z-score of dpERK with insulin: -0.35

Which result is listed for mmd (mind-meld) #3?
replicate 1, z-score of dpERK with insulin: 1.01; replicate 2, z-score of dpERK with insulin: 0.95

Which result is listed for Map60 (Microtubule-associated protein 60)?
replicate 1, z-score of dpERK with insulin: 0.53; replicate 2, z-score of dpERK with insulin: -0.06

With CARPA (Carbonic anhydrase-related protein A) #1, what was measured?
replicate 1, z-score of dpERK with insulin: 2.04; replicate 2, z-score of dpERK with insulin: 1.5

What did the screen give for CARPA (Carbonic anhydrase-related protein A) #2?
replicate 1, z-score of dpERK with insulin: -0.39; replicate 2, z-score of dpERK with insulin: 0
